## Screening data, single-dose tests

Data taken from ChEMBL document CHEMBL3988442, “University of Dundee, Small-Polar-MMV Screening Library” (2021).

T. brucei: 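Whole-parasite assay of Trypanosoma brucei over 72 hours; the read-out is not stated. Concentration: 30 µM. The record gives no direction; compounds that gave an IC50 in retests scored well above the rest, so higher reads as stronger inhibition. Values scatter widely below zero; nearly all retest evidence comes from the higher of the two concentrations used. Size under these conditions: about 64,000 compounds, about 940 of them at 50% or above in at least one test.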
Toxoplasma: 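Assay of Toxoplasma gondii numbers, read through their beta-galactosidase reporter with a colour substrate. Compounds at 10 µM. Higher reads as fewer parasites (inferred from which compounds were picked for retests). About 67,000 compounds were tested under these conditions; 0.38% (about 260) showed 50% or more at least once.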

Each number is a percent effect as filed. The controls that fix the scale are not given in the record; negative values are as filed. Compounds were drawn at random from those tested, without regard to their results. A dash means the value is not listed here; it may have been measured.

| Compound | T. brucei | Toxoplasma |
|---|---|---|
| `O=C(NCc1ccccc1OCC1CC1)C1CCOC1` (stereo unspecified) | -22.62 | - |
| `COc1cc(NC(=O)N(C)Cc2ccc(Br)o2)ncn1` | -13.39 | 3.373 |
| `O=C(O)C(F)(F)F.O=C(O)C(F)(F)F.O=C(c1ccsc1)N1CCOC2(CCN(Cc3cccnc3)CC2)C1` | 13.02 | 2.778 |
| `COc1nccnc1N1CCC2(CCCN(C(C)C)C2=O)C1` (stereo unspecified) | -3.851 | 1.243 |
| `CC(Cn1ccnc1)NC(=O)C1(c2ccc3c(c2)OCCO3)CCCC1` (stereo unspecified) | 11.55 | - |
| `COCCCN1CCN(C(=O)C(c2cccc(F)c2)N(C)C)CC1` (stereo unspecified) | -16.35 | 0.946 |
| `c1ccc(-c2ccc(CN3CCOC(Cn4cncn4)C3)cc2)cc1` (stereo unspecified) | - | 16.02 |
| `COc1ccc(CNC(C)c2cnn(C)c2)cc1OC1CCCC1` (stereo unspecified) | 2.559 | 20.88 |
| `CN(Cc1ncc(-c2ccccc2C(=O)O)s1)c1ncccn1` | -9.199 | -2.528 |
| `Cc1nccn1CCN(C)C(=O)C1CCCN(C2CCOCC2)C1` (stereo unspecified) | 13.59 | -39.16 |
| `CN(Cc1ccc2c(c1)OCO2)C(=O)c1ccc(C2CCCNC2)cc1` (stereo unspecified) | 78.75 | -22.95 |
| `CC(C)CCN1CCN(Cc2nc(C(C)C)no2)CC1` | -8.876 | -3.884 |
| `CCOC(=O)CNC(=O)NCc1cccn1Cc1ccccc1C` | -48.69 | 0.5102 |
| `COCCOCCNC(=O)c1ccc(N2CCC(C)=N2)cc1` | -25.16 | -0.06468 |
| `Cc1ccc(NC2CCN(C(=O)c3ccsc3)CC2)nn1` | -24.89 | -0.7411 |
| `c1ccc(CCCn2ccnc2-c2cn(C3CCNCC3)nn2)nc1` | -22.61 | 12.99 |
| `COc1ccc2c(ccn2CCC(=O)Nc2n[nH]c(C(C)C)n2)c1` | -7.701 | - |
| `COc1ccc(C)cc1CC(=O)NS(=O)(=O)c1ccc(C(N)=O)cc1` | - | 8.482 |
| `c1ccc(-c2nc3c(c(NCc4nnc5n4CCC5)n2)CCNC3)cc1` | 7.408 | -7.754 |
| `[H][C@]12C[C@@H](CNC(=O)c3ccsc3)O[C@]1([H])CN(C(=O)CO)C2` | -12.73 | 24.52 |
| `O=C(O)C(F)(F)F.[H][C@@]12CN(C(=O)c3ccoc3)C[C@]1([H])OCCN2c1ncccn1` | -8.279 | 6.365 |
| `Cc1cc(C)n(C2CN(CCc3ccccn3)C2)n1` | -31.08 | 0.3152 |
| `CC(C)c1nc(C2CCCN2C(=O)c2ccc(C#N)cn2)no1` (stereo unspecified) | - | -9.781 |
| `O=C([C@@H]1Cc2[nH]cnc2CN1C(=O)NC1CCCCC1)N1CCCC1` | -4.731 | 13.67 |
| `CN1CC2(CCCN(Cc3nnc(-c4ccco4)o3)CC2)OC1=O` (stereo unspecified) | -20.31 | 3.772 |
| `CCN(CC)S(=O)(=O)N(Cc1cccc(C)c1)Cc1ccccn1` | -1.606 | 20.58 |
| `Cc1nn(C)c2ncnc(NCC(O)CN3CCCCC3)c12` (stereo unspecified) | -12.8 | 17.87 |
| `O=C(O)C(F)(F)F.[H][C@]12CN(Cc3ccc(F)cc3)C[C@@]1([H])S(=O)(=O)CC[C@@H]2C(=O)NCC(C)C` | -43.77 | -6.758 |
| `N#CCCCn1cnc2c(F)cc(Br)cc2c1=O` | -28.48 | 4.446 |
| `Nc1nc2c(c3c1C(=O)NC3=O)CCCC2` | -49.72 | -14.09 |
| `Cc1noc(C)c1CN(C)C(=O)NC1CCCN(S(C)(=O)=O)C1` (stereo unspecified) | -3.473 | 13.07 |
| `Cc1cc(NCCc2nnc(N)s2)nc(-c2cccnc2)n1` | 4.355 | -12.89 |
| `O=C1CCC(C(=O)NCc2nncn2-c2ccccc2)CN1` (stereo unspecified) | 12.38 | 0.4021 |
| `CCC1CN(C(=O)c2cccc(OCc3cscn3)c2)CCO1` (stereo unspecified) | 4.043 | -11.11 |
| `c1csc(CCC2CCCCN2Cc2noc(C3CC3)n2)c1` (stereo unspecified) | -19.8 | 1.765 |
| `CC(C)CN1C(=O)C2(CCN(Cc3ccsc3)C2)c2ccccc21.O=C(O)C(F)(F)F` (stereo unspecified) | 49.81 | 25.74 |
| `O=C(NC1CC1)C1CCN(c2snc3ccccc23)CC1` | 1.939 | -9.789 |
| `CCc1nccn1CCNC1CCN(c2nc3ccc(Cl)cc3s2)CC1` | 100.4 | 59.54 |
| `Cc1cnn(-c2ccc(S(N)(=O)=O)cc2F)c1` | -14.58 | -9.302 |
| `CNC(=O)C(C)(C)N1CCC[C@H]1C(=O)NCC(C)C.Cl` | -8.226 | 4.247 |
| `[H][C@@]12C[C@H](C(=O)Nc3ccccc3)[C@@]([H])(CN(Cc3cccnc3)C1)O2` | -337.6 | -25.7 |
| `[H][C@]12CCN(C(=O)c3cnc(C)cn3)C[C@@]1([H])OCCN(c1ncccn1)C2` | -241.6 | -39.54 |
| `Cc1noc(NC(=O)c2ccc(OC(F)(F)F)cc2)n1` | 107.1 | 62.71 |
| `CCOCCC(=O)NCCNc1nccc(C(F)(F)F)n1` | -40.34 | -6.122 |
| `Cc1nc(CN(C)C2CCN(Cc3ccc4c(c3)CCC4)C2)no1` (stereo unspecified) | - | 11 |
| `CN(C)C(=O)c1ccc(NCCNc2ccc3ccccc3n2)nc1` | -83 | -0.863 |
| `OC(CN(Cc1ccccc1)Cc1ccon1)c1ccco1` (stereo unspecified) | -16.25 | -6.363 |
| `Cc1ccc(S(=O)(=O)N2CCN(CCC(N)=O)CC2)s1` | -4.981 | 7.713 |
| `N#Cc1cc2c(nc1O)CCCCC2` | -10.36 | 1.088 |
| `Cc1ccc(OCCN(C)C(C)c2cccc(S(N)(=O)=O)c2)cc1` (stereo unspecified) | - | 14.26 |
| `CCOc1ccc(NC(=O)c2cc(C)c(C)o2)cc1CO` | -18.67 | 3.776 |

Repeated from the top, 5 entries:

| Compound | T. brucei | Toxoplasma |
|---|---|---|
| `O=C(NCc1ccccc1OCC1CC1)C1CCOC1` (stereo unspecified) | -22.62 | - |
| `COc1cc(NC(=O)N(C)Cc2ccc(Br)o2)ncn1` | -13.39 | 3.373 |
| `O=C(O)C(F)(F)F.O=C(O)C(F)(F)F.O=C(c1ccsc1)N1CCOC2(CCN(Cc3cccnc3)CC2)C1` | 13.02 | 2.778 |
| `COc1nccnc1N1CCC2(CCCN(C(C)C)C2=O)C1` (stereo unspecified) | -3.851 | 1.243 |
| `CC(Cn1ccnc1)NC(=O)C1(c2ccc3c(c2)OCCO3)CCCC1` (stereo unspecified) | 11.55 | - |